Test results taken from the supplement of paper PMC8166895.
Values joined by “and” are separate entries in the source; they are usually repeats but may differ in a detail not shown here. Equal values may be shown once. Where a name gives a salt, the structure may show the parent alone. Some of the results follow. Most entries show no effect beyond the scatter of the controls.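 A single-replicate pilot screen of approved drugs and clinical or known-target compounds measured melting temperature via differential scanning fluorimetry. Top stabilizing hits raised the melting point by 2 °C or more; negative shifts indicate destabilization.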 Where a SMILES comes first, the peptide text is derived from it. [ ]: non-standard residue; d: D form. pGlu = O=C1CC[C@@H](C(=O)O)N1; Thz = O=C(O)[C@@H]1CSCN1

The molecules below were run on SARS-CoV-2 main protease (Mpro, nsp5) (assay: thermal shift ΔTm of Mpro relative to plate average Tm; higher = stronger thermal stabilization of Mpro (binding)). Details: 10 µM; protein concentration 1 µM.

| SMILES | thermal shift ΔTm of Mpro |
| --- | --- |
| COc1ccc2c(c1O)-c1c(OC)c(OC)cc3c1[C@H](C2)N(C)CC3 [S-Isocorydine(+)] | -0.0444 °C |
| COc1ccc2c(c1O)-c1c(OC)c(OC)cc3c1[C@H](C2)N(C)CC3 [(+)-Isocorydine hydrochloride] | -0.0786 °C |
| C[C@@](Cc1ccc(O)c(O)c1)(NN)C(=O)O [Carbidopa Hydrate] | -0.115 °C |
| C[C@@](Cc1ccc(O)c(O)c1)(NN)C(=O)O [Carbidopa] | -0.66 °C |
| O=C(Oc1cccc(F)c1OC(=O)c1cccc(O)c1)c1cccc(O)c1 | 0.138 °C |
| C=CC(=O)Nc1cccc(Oc2nc(Nc3ccc(N4CCN(C)CC4)cc3)ncc2Cl)c1 | 0.551 °C |
| CC1CCN(CC[C@H]2CCCN2S(=O)(=O)c2cccc(O)c2)CC1 | -0.182 °C |
| Nc1ncnc2c1ncn2[C@@H]1O[C@H](CO)[C@@H](O)[C@@H]1O [Vidarabine] | 0.0231 °C |
| Cc1noc(-c2ccc(-c3ccc(C4(C(=O)O)CC4)cc3)cc2)c1NC(=O)O[C@H](C)c1ccccc1 | 0.0427 °C |
| COc1cn(-c2ccc(-n3cccn3)cc2F)nc(-c2ccnn2-c2ccccc2)c1=O | 0.161 °C |
| CCCCC(CC)COC(=O)CC(C(=O)OCC(CC)CCCC)S(=O)(=O)O (configuration not stated) [Docusate sodium] | -0.267 °C |
| O=C1CC[C@@]2(O)[C@H]3Cc4ccc(O)c5c4[C@@]2(CCN3CC2CC2)[C@H]1O5 [Naltrexone HCl] | 0.234 °C |
| CC(C)=CC(=O)CCC(=O)N1CCN(Cc2cc3nc(-c4cccc5[nH]ncc45)nc(N4CCOCC4)c3s2)CC1 | -0.276 °C |
| COc1cc(Nc2c(C#N)cnc3cc(OCCCN4CCN(C)CC4)c(OC)cc23)c(Cl)cc1Cl [Bosutinib (SKI-606)] | 0.35 °C |
| COc1ccc(C(c2c[nH]c3ccccc23)c2c[nH]c3ccccc23)cc1 | -0.00109 °C |
| CCCCc1oc2ccc(NS(C)(=O)=O)cc2c1C(=O)c1ccc(OCCCN(CCCC)CCCC)cc1 [Dronedarone HCl] | -0.00689 °C |
| CCC1(c2ccccc2)C(=O)NCNC1=O [Primidone] | 0.176 °C |
| CCCNC(=O)c1cn2ncnc(Nc3cc(C(=O)NC4CC4)ccc3C)c2c1C | -0.102 °C |
| COC(=O)C1=C(C)NC(C)=C(C(=O)OC(C)(C)CN(C)CCC(c2ccccc2)c2ccccc2)C1c1cccc([N+](=O)[O-])c1 (configuration not stated) [Lercanidipine] | 0.298 °C |
| O=C(Nc1cccnc1)c1cc(-c2ccnc(F)c2)ccc1OCc1ccccc1 | -0.259 °C |
| COc1ccc(Cl)cc1NC(=O)Nc1cc(C)nc2ccccc12 | 0.328 °C |
| COc1ccc(Cl)cc1NC(=O)Nc1cc(C)nc2ccccc12 [PQ401 hydrochloride] | 0.254 °C |
| CN(C)CCC(c1ccc(Br)cc1)c1ccccn1 (configuration not stated) [Brompheniramine hydrogen maleate] | -0.0979 °C |
| COc1cc2ncnc(Nc3cccc(Br)c3)c2cc1OC | 0.0694 °C and -0.00609 °C |
| O=c1[nH]c2ccccc2n1CCN1CCN(c2cccc(C(F)(F)F)c2)CC1 [Flibanserin] | -0.0381 °C |
| COc1cc2ncnc(Nc3cccc(Cl)c3F)c2cc1OC(=O)N1CCN(C)C[C@H]1C [AZD3759 hydrochloride] | -0.0571 °C |

| SMILES | thermal shift ΔTm of Mpro |
| --- | --- |
| Oc1c(Cl)cc(Cl)c2cccnc12 [Chloroxine] | 0.0476 °C |
| c1ccc(-c2ccc(C(c3ccccc3)n3ccnc3)cc2)cc1 (configuration not stated) [Bifonazole] | -0.254 °C |
| O=C1CC[C@@H](C(=O)N2CSC[C@H]2C(=O)O)N1 [Pidotimod] ([pGlu]-[Thz]-OH) | 0.0879 °C |
| C=CC(=O)Nc1cccc(Sc2nc(Nc3ccc(N4CCN(C)CC4)cc3)ncc2Cl)c1 | 0.775 °C |
| COc1ccc2[nH]c(SCc3ncc(C)c(OC)c3C)nc2c1 [Omeprazole sulfide] | 0.34 °C |
| CC(C)NCC(O)COc1ccc(CC(N)=O)cc1 (configuration not stated) [Atenolol] | -0.0652 °C |
| CCCCNc1ncc(C(=O)NCc2ccc(-n3ccnc3)cc2)c(NC2CCC(O)CC2)n1 (configuration not stated) | -0.294 °C |
| CCCCCCCCNc1cc(=O)[nH]c(=O)[nH]1 | 0.312 °C |
| CCN1CCN(Cc2ccc(NC(=O)Nc3ccc(Oc4cc(NC)ncn4)cc3)cc2C(F)(F)F)CC1 | 0.115 °C |
| Cc1noc(-c2ccc(-c3ccc(CC(=O)O)cc3)cc2)c1NC(=O)OC(C)c1ccccc1Cl (configuration not stated) | -0.312 °C |
| C[C@H]1O[C@H](O[C@H]2[C@H](O)[C@@H](O)[C@@H](O[C@@H]([C@H](O)[C@@H](O)C=O)[C@H](O)CO)O[C@@H]2CO)[C@H](O)[C@@H](O)[C@@H]1N[C@H]1C=C(CO)[C@@H](O)[C@H](O)[C@H]1O [Acarbose] | 0.175 °C |
| O=C([O-])c1ccccn1.O=C([O-])c1ccccn1.O=C([O-])c1ccccn1.[Cr+3] [Chromium picolinate] | 0.269 °C |
| O=C(c1ccc2nonc2c1)N1CCCCC1 [Farampator] | -0.0784 °C |
| Cn1c(CCCC(=O)O)nc2cc(N(CCCl)CCCl)ccc21 [Bendamustine HCl] | 0.123 °C |
| CC(C)NC[C@@H](C(=O)N1CCN(c2ncnc3c2[C@H](C)C[C@H]3O)CC1)c1ccc(Cl)cc1 | -0.173 °C |
| CC(C)(C)c1cc(C(C)(C)C)c(NC(=O)c2c[nH]c3ccccc3c2=O)cc1O [Ivacaftor (VX-770)] | 0.482 °C |
| Cc1ccc([C@@H]2O[C@H](CO)[C@@H](O)[C@H](O)[C@H]2O)cc1Cc1ccc(-c2ccc(F)cc2)s1 [Canagliflozin] | 0.00301 °C |
| CCCc1cc(C)[nH]c(=O)c1CNC(=O)c1cc(-c2ccnc(N3CCN(C)CC3)c2)cc2c1cnn2C(C)C | 0.0697 °C |
| CC(=O)N(CC(O)CO)c1c(I)c(C(=O)NCC(O)CO)c(I)c(C(=O)NCC(O)CO)c1I (configuration not stated) [Iohexol] | 0.0786 °C |
| COC(=O)Nc1nc2cc(Sc3ccccc3)ccc2[nH]1 [Fenbendazole] | 0.0497 °C |
| COc1cccc(C=NCCN=Cc2cccc(OC)c2[O-])c1[O-].[Cl-].[Mn+3] | 0.0273 °C |
| Cn1c(=O)c2c(ncn2CC2OCCO2)n(C)c1=O [Doxofylline] | -0.0886 °C |
| Oc1cc2c(cc1O)C(c1ccccc1)CNCC2 (configuration not stated) | -0.722 °C |
| COc1ccc(Oc2cc(C)c(-c3csc(NC(=O)c4ccncc4)n3)c(C)c2)cc1 | -0.426 °C |
| O=C(O)C1=C(CSc2nnnn2CS(=O)(=O)O)CS[C@@H]2[C@H](NC(=O)[C@H](O)c3ccccc3)C(=O)N12 [Cefonicid sodium] | 0.183 °C |
| CCc1cc2c(cc1CC)CC(NC[C@H](O)c1ccc(O)c3[nH]c(=O)ccc13)C2 [Indacaterol] | -0.0119 °C |

A second format for some results above.
CCN1CCN(Cc2ccc(NC(=O)Nc3ccc(Oc4cc(NC)ncn4)cc3)cc2C(F)(F)F)CC1
  thermal shift ΔTm of Mpro: 0.115 °C
CC(C)NC[C@@H](C(=O)N1CCN(c2ncnc3c2[C@H](C)C[C@H]3O)CC1)c1ccc(Cl)cc1
  thermal shift ΔTm of Mpro: -0.173 °C
COc1ccc(Oc2cc(C)c(-c3csc(NC(=O)c4ccncc4)n3)c(C)c2)cc1
  thermal shift ΔTm of Mpro: -0.426 °C

(cont.)

| SMILES | thermal shift ΔTm of Mpro |
| --- | --- |
| CCc1cc2c(cc1CC)CC(NC[C@H](O)c1ccc(O)c3[nH]c(=O)ccc13)C2 [Indacaterol Maleate] | 0.221 °C |
| C=C[C@]1(C)C[C@@H](OC(=O)CSC(C)(C)CNC(=O)[C@H](N)C(C)C)[C@]2(C)[C@H](C)CC[C@]3(CCC(=O)[C@H]32)[C@@H](C)[C@@H]1O [Valnemulin HCl] | -0.217 °C |
| CC(C=CC1(O)C(C)=CC(=O)CC1(C)C)=CC(=O)O (configuration not stated) [Abscisic Acid (Dormin)] | -0.226 °C |
| Cc1sc2c(c1C)C(c1ccc(Cl)cc1)=N[C@@H](CC(N)=O)c1nnc(C)n1-2 | -0.239 °C |
| CCN(CC)CCNC(=O)c1ccc(N)cc1 [Procainamide HCl] | 0.0943 °C |
| NC[C@H](O)c1ccc(O)c(O)c1 [Noradrenaline bitartrate] | 0.00908 °C |
| NC[C@H](O)c1ccc(O)c(O)c1 [Noradrenaline bitartrate monohydrate] | -0.732 °C |
| O=C(O)c1ccnc(C(=O)O)c1 [lutidinic acid] | -0.0393 °C |
| CCc1cnc(N2CCC(c3nc(COc4ccc(-n5cnnn5)cc4)cs3)CC2)nc1 | 0.04 °C |
| N#Cc1c(N(CC(=O)O)CC(=O)O)sc(C(=O)O)c1CC(=O)O [Strontium ranelate] | 0.00082 °C |
| CC[C@H]1OC(=O)[C@H](C)[C@@H](O[C@H]2C[C@@](C)(OC)[C@@H](O)[C@H](C)O2)[C@H](C)[C@@H](O[C@@H]2O[C@H](C)C[C@H](N(C)C)[C@H]2O)[C@](C)(O)C[C@@H](C)CN(C)[C@H](C)[C@@H](O)[C@]1(C)O [Azithromycin Dihydrate] | -0.0718 °C |
| CC[C@H]1OC(=O)[C@H](C)[C@@H](O[C@H]2C[C@@](C)(OC)[C@@H](O)[C@H](C)O2)[C@H](C)[C@@H](O[C@@H]2O[C@H](C)C[C@H](N(C)C)[C@H]2O)[C@](C)(O)C[C@@H](C)CN(C)[C@H](C)[C@@H](O)[C@]1(C)O [Azithromycin] | 0.0738 °C |
| CCOC(=O)C1=C(C)NC(=S)NC1c1cccc(O)c1 (configuration not stated) [Monastrol] | -0.0491 °C |
| CCn1c(N)c(C(=O)NC)c(=O)c2ccc(C#CC(C)(O)COC)nc21 (configuration not stated) | 0.038 °C |
| CN1CCc2nc(C(=O)N[C@@H]3C[C@@H](C(=O)N(C)C)CC[C@@H]3NC(=O)C(=O)Nc3ccc(Cl)cn3)sc2C1 [Edoxaban] | 0.134 °C |
| N[C@@H]1C[C@H]1c1ccccc1 [Tranylcypromine (2-PCPA) HCl] | -0.0942 °C |
| OCCn1cc(-c2ccc3c(c2)CC/C3=N\O)c(-c2ccncc2)n1 | 0.2 °C |
| CN[C@H]1CC[C@@H](c2ccc(Cl)c(Cl)c2)c2ccccc21 [Sertraline HCl] | 0.0373 °C |
| COC(=O)N[C@H](C(=O)NNC[C@H](O)[C@H](Cc1ccccc1)NC(=O)[C@@H](NC(=O)OC)C(C)(C)C)C(C)(C)C [Des(benzylpyridyl) Atazanavi] | -0.00162 °C |
| O=C(O)c1cccc(-c2noc(-c3ccccc3F)n2)c1 [Ataluren (PTC124)] | 0.0934 °C |
| Nc1ccc(S(=O)(=O)Nc2nccs2)cc1 [Sulfathiazole] | -0.0335 °C |
| CCS(=O)(=O)CCSP(=O)(OC)OC [Demeton-s-methyl sulfone] | 0.00242 °C |
| O=C1C(Cl)=C(N2CCOCC2)C(=O)N1c1ccc(Cl)c(Cl)c1 | 0.0792 °C |
| CC(C)[N+]1(C)[C@@H]2CC[C@H]1C[C@@H](OC(=O)C(CO)c1ccccc1)C2 (some centres not stated) [Ipratropium bromide monohydrate] | 0.0335 °C |
| CC(C)[N+]1(C)[C@@H]2CC[C@H]1C[C@@H](OC(=O)C(CO)c1ccccc1)C2 (some centres not stated) [Ipratropium Bromide] | -0.104 °C |
